PubChem BioAssay AID1259308 – NCATS – 2017
Purpose: 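Genes whose loss raises luciferase production in HEK293 cells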 (primary screen). Cells: human HEK293 embryonic kidney cells stably expressing firefly luciferase (HEK-CMV-Luc2-Hygro). Reagent: single siRNA against human genes, 0.8 pmol siRNA per well. Duration: 72 h. Measurement: 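Luciferase light (ONE-Glo) measured on one replicate plate set and viability (CellTiter-Glo) on the other, scaled to a negative control siRNA, with robust z-scores and luciferase per cell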. Scale: total luciferase, z-score and total luciferase, % of control: higher = more reporter protein produced; luciferase per cell, z-score: higher = more reporter output per viable cell; viable cells, % of control: higher = more viable cells. Active means: 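Active when the median/MAD z-score for overall luciferase is greater than 3; a gene was taken forward for validation with new siRNAs if at least two of its three siRNAs passed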. Calls: active = raised luciferase; inactive = no rise.
The whole screen tested about 59,000 reagents; this is a random part of them. About 1,510 of all reagents (2.6%) were called active. 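Calls use total luciferase alone and ignore viability, so some active siRNAs may act by altering cell number.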 A number with no mark means an inactive call. The numbers tell different reagents against one gene apart.

The first 3 records, to show the layout:
no.	gene	reagent no.	total luciferase, z-score	total luciferase, % of control	luciferase per cell, z-score	viable cells, % of control
1	LCP1	1	-0.25	76.9	0.743	70.7
2	LCP1	2	0.595	93.7	1.09	78.6
3	LCP1	3	0.119	84.3	-0.078	96.1

The listing, repeating the preview:
no.	gene	reagent no.	total luciferase, z-score	total luciferase, % of control	luciferase per cell, z-score	viable cells, % of control
1	LCP1	1	-0.25	76.9	0.743	70.7
2	LCP1	2	0.595	93.7	1.09	78.6
3	LCP1	3	0.119	84.3	-0.078	96.1
4	CHD4	1	-0.0487	80.9	0.207	85.6
5	CHD4	2	-0.689	68.2	-0.944	97.7
6	CHD4	3	3.73 (active)	156	2.42	92.3
7	CZIB	1	-1.61	49.8	-2.01	94.6
8	CZIB	2	-0.966	62.7	-0.558	81.1
9	CZIB	3	-0.433	73.3	-0.444	92
10	TEX14	1	-0.649	69	-1.12	104
11	TEX14	2	-0.204	77.8	-0.0103	87.2
12	TEX14	3	0.129	84.4	0.568	81.3
13	KIR3DL3	1	-0.318	75.6	0.175	80.6
14	KIR3DL3	2	1.13	104	0.717	96.5
15	KIR3DL3	3	-0.523	71.5	-0.0873	81.7
16	ANKLE2	1	-0.788	66.2	-1.21	102
17	ANKLE2	2	0.739	96.6	0.494	94.8
18	ANKLE2	3	0.301	87.9	-0.359	108
19	MEI1	1	-1.96	42.8	-2.17	84.7
20	MEI1	2	0.00458	82	-0.0378	92.5
21	MEI1	3	0.434	90.5	0.623	85.8
22	ACRP1	1	0.82	98.2	0.763	89.7
23	ACRP1	2	0.941	101	0.987	86.7
24	ACRP1	3	0.744	96.7	0.876	85.8
25	APOA1	1	-0.475	72.4	-0.459	91.3
26	APOA1	2	-0.202	77.9	-0.7	105
27	APOA1	3	0.558	93	0.867	82.7
28	PAIP2B	1	1.27	107	1.14	88.7
29	PAIP2B	2	2.15	125	1.73	88.3
30	PAIP2B	3	0.729	96.4	-0.397	120
31	ARSA	1	-0.433	73.3	-0.411	91.2
32	ARSA	2	-0.0876	80.1	0.00721	89.4
33	ARSA	3	2.04	122	2.86	64.4
34	LRIG3	1	-0.421	73.5	-0.585	95.8
35	LRIG3	2	1.81	118	2.29	72.1
36	LRIG3	3	-0.165	78.6	0.331	80.5
37	C1QTNF9	1	0.132	84.5	-0.0145	94.8
38	C1QTNF9	2	1.22	106	1.4	82
39	C1QTNF9	3	-0.688	68.2	-0.994	99
